Measured values from PMC9114370.
These are yes or no findings as the source states them, for the method shown. A result given as binding can be weak or reduced; the word gives no strength.

By UniProt entry, the sequences of proteins in these tests, tags left out. Where a name states a change or a piece, a line headed by the entry shows the natural chain unless it says otherwise. Residues count along the entry.
UniProt Q13148, residues 1-102: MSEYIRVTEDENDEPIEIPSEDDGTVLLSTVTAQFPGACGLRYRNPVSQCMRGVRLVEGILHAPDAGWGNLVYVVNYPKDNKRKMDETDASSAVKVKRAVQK
UniProt P11021: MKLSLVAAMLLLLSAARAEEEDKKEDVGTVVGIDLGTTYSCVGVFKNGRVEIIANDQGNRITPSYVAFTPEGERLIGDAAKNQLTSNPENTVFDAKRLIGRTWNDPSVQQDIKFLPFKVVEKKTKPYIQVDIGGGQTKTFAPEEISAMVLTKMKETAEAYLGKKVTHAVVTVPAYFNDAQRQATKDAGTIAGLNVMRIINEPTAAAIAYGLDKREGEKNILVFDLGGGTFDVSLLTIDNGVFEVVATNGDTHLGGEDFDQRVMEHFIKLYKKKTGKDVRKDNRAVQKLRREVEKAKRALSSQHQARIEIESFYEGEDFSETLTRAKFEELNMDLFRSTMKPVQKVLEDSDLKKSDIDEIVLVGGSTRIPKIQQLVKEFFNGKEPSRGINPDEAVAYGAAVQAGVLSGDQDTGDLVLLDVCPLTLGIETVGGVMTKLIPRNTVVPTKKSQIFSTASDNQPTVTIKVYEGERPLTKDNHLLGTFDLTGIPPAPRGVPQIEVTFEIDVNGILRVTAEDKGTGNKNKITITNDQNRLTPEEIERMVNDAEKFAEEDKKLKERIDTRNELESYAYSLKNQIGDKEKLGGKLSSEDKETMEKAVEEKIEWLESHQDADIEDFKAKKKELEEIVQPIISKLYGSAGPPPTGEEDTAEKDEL

Target: TDP-43_(1–102) (human) (UniProt Q13148)
Assay: MST; 50 nM labelled TDP-43 construct (RED-NTA labelling), ranging concentrations of Hsp70 SBD titrated, MST buffer, premium capillaries, 40% LED, medium MST power; no RNA; both purified

Substance: HspA5 substrate binding domain (SBD) (from UniProt P11021) (domain or fragment)
- binding: binds
